Z-score data for 107 sequences are collected here from PubChem BioAssay AID1508600 (Functional Genomics Laboratory (NCATS/FGL), 2020).

About 3,700 (7%) of roughly 53,000 sequences were called active.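 Rule for the calls: active = gene knockdowns whose robust z-score for IL-1 alpha signal is at least 2 or at most -2, so actives lie on both sides; inactive = the rest.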 Some of the results follow.

A short description of this assay: Components of the Cytosolic LPS Sensing Pathway: Gene Identification via Genome-wide siRNA Screen.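 Note: robust z of the log signal after scaling to non-targeting control siRNA wells of the plate.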 The conditions noted are these: RAW264.7 macrophages, IL-1a HTRF, actives lie on both sides, screened at 100 nM (by protocol), cells primed 5 h with Pam3CSK4 first. An outline of the steps: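 Knockdown: 100 nM siRNA, 48h, RAW264.7. Stimulation: Pam3CSK4 5 h, then LipidA via TransIT-TKO 24 h. Output: supernatant IL-1a HTRF, negative-control-normalized, log robust z-score; viability by CellTiter-Glo.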
With GGAAGCGUGGAAGUCUACGTT against Kcnj16, the z-score was inactive: 0.277.

Take GCCCUAUCCACCCAUUGAGTT against Hs3st1: the z-score was inactive: -0.319.

As to “GGUGUUCUACUGUGCAUUATT against 9330132A10Rik”, the z-score was inactive: 0.578.

Take GGUAUGGUAUUGUGUAUUUTT against Cyp2c38: the z-score was inactive: -1.6.

For the sequence CCCACUAAGAAACAAUCUATT against Gp1ba, the z-score was inactive: 0.189.

Take GGAAAGAAAAAAGAUGGUCTT against Riok1: the z-score is inactive: -0.674.

Regarding GGAUUCUUUCCAACAGAUUTT against Wwp2, the z-score was inactive: -0.00908.

Regarding GGAAGAAUUUGACAACCGCTT against Mrps18c, the z-score is inactive: 0.583.

As to GGUAUAAAGCAACUUACUATT against Rab7b, the z-score is inactive: -0.575.

For GCAGAUCAGUUGGUACAAGTT against Acss3, the z-score was inactive: 0.0616.

For the sequence GCGUAAGCAGCAAGAUGGATT against Ash2l, the z-score was inactive: 1.21.

Regarding GCCUUUUUACAGCUCAGGUTT against Zfp975, the z-score was inactive: -0.623.

Regarding GGAGCACUUUGUAUGGAACTT against Ube2q2, the z-score is active: 2.97.

Turning to GGUGGAAUCAAUAUUGUAUTT against Tmem64, the z-score was inactive: -1.2.

In the case of GGAAAAGAAAGGAACACUGTT against Defb13, the z-score is inactive: 0.51.

As to GGACUUCUUUUGAAUCGGATT against Pex14, the z-score was inactive: 0.464.

Turning to GCUAAUGCACCAAUGUGAGTT against Pafah1b3, the z-score was inactive: -1.53.

Regarding GGUGUUAGGAAGUCACAUUTT against Tas2r109, the z-score is inactive: -1.28.

As for GGUUAGUCUGACCUGCCUGTT against Ighg3, the z-score was inactive: -0.288.

On to CCCUUAAUAAAGAAGGGACTT against Atg9a, for which the z-score was inactive: 0.961.

In the case of GGAAAGCAAUACAAUCAAATT against Ndufaf4, the z-score was inactive: 0.989.

For the sequence CCACAGAUUUGCCUGAAAATT against Cabs1, the z-score was inactive: 1.05.

With CCAAUGUUUGAAUUCUUCGTT against Nudt1, the z-score was inactive: 0.729.

With GGACCUUUCCGAGUCCAUUTT against Tmed10, the z-score was inactive: 1.07.

As for GGAACAGCAAAAAUAAGACTT against Vmn1r225, the z-score was inactive: 0.443.

As for GCUAUCUCGGUGUCAACUUTT against Aqp7, the z-score was inactive: -1.26.

As to CGCGGCUUCUCAAAAAGCATT against Nkx6-2, the z-score was inactive: -1.84.

Regarding GGAAAUGGCUCAUUUUAUCTT against Mmgt1, the z-score is inactive: 0.689.

In the case of GGUGGAUUCUCCACUGUUUTT against Bmp2k, the z-score is inactive: 0.523.

Regarding GCCAGAACCUGACUUAUAUTT against Mia2, the z-score is inactive: -0.0793.

With CCCUAUGGUUUAUAUGAAUTT against Ptk2b, the z-score is inactive: -1.62.

As for GGUAACCAUCAAAUAUUCCTT against Pan2, the z-score is inactive: 1.59.

Take GAAUCUUAGGAAGAUGACATT against Krtap9-3: the z-score was inactive: -1.18.

For the sequence CCAAGAGCCUUUCUAACAATT against Pnrc2, the z-score is inactive: -1.51.

Turning to GGGCAUUCAGCAGUUACAGTT against Lrriq4, the z-score is inactive: 0.521.

Consider GCUCCUUUAGUCCUCACCATT against Mrpl10, for which the z-score was active: -2.15.

On to GGAAUGGAGUCCUAGUCCATT against Spdef, for which the z-score was inactive: -0.566.

For CCUGAUGGCUUUCAUCUUATT against Olfr815, the z-score is inactive: -0.432.

As to GGAAUUCCAAUGUUACCAUTT against Meltf, the z-score is active: 3.35.

Turning to CCUUCGUAAUGACUGAGGATT against Iba57, the z-score was inactive: 0.205.

Regarding GGGAGAACACAUCUACUGATT against Slamf6, the z-score is inactive: -1.17.

In the case of GGAGCUAGCAAGUAAAACUTT against Lbx2, the z-score is inactive: -0.996.

Regarding CCUUCUUGAAAACUCCAAGTT against Lum, the z-score is inactive: -0.862.

Turning to GCCGGUGACUGUUGUGUAUTT against Mppe1, the z-score was inactive: 0.0525.

Regarding GGAAGAGAAUGUGAAGCUGTT against Aqp3, the z-score is inactive: -0.787.

On to AGUGGGCUUCAAAUUUCCATT against Aym1, for which the z-score was inactive: -0.551.

As to GGAAAAUCUUCUAUCGAACTT against Prdm9, the z-score was inactive: 0.383.

For the sequence GGAUGAAGAACUGACUCCGTT against Mboat2, the z-score is inactive: -0.108.

GCAUAGACAUGGCUGCAUUTT against Arntl2: the z-score was inactive: 0.442.

Take GGAGGAUCUUUCAAAGAGATT against Egfl8: the z-score was inactive: 0.763.

In the case of GGAUUUAACAGAGAUACUGTT against H2-M11, the z-score was inactive: -0.703.

In the case of GGGCUUCCUUAUGAAUUGATT against Rbmx2, the z-score was inactive: 0.442.

On to GCCCAUGUUAGAGGUUUUGTT against Rsph3a, for which the z-score is inactive: 0.838.

For the sequence GGCAAACGAAUGCAUGUACTT against Rbm4b, the z-score is inactive: -0.485.

In the case of GGCCUCACAGUGCUUUCUCTT against Olfr1232, the z-score was inactive: 0.0779.

For the sequence GGAUUCCUUUCACAAGGCCTT against Rab17, the z-score is inactive: 1.18.

With GCCAGAUGGUACGAAUGGCTT against Cdc5l, the z-score is inactive: -1.18.

Turning to GGCCAGAAGAACUAACAGUTT against Cept1, the z-score is inactive: -0.11.

As for GGCAAAGAGAGAAUUAAAUTT against Ssx2ip, the z-score is inactive: -1.15.

For the sequence GGGUCAUUUCCUAUGCAGGTT against Olfr866, the z-score was inactive: -1.24.

Consider GGCUGAGCUGAUCUUCUUATT against Wnt8a, for which the z-score is inactive: -0.037.

As for GGAUAGCAUCCUCUUGCAUTT against Fa2h, the z-score is inactive: -1.29.

In the case of CCCGGAAUAAGACAAUUUCTT against Olfr788, the z-score was inactive: 0.282.

As for “GCACAGUCUCAUGAAUAUUTT against A130014H13Rik”, the z-score was inactive: -1.22.

On to GGUCCAGAAGCAGAUGCUUTT against Zdhhc15, for which the z-score was inactive: -0.174.

Consider GGGCUAUGAACCUGAAGAGTT against Msl1, for which the z-score is inactive: 1.33.

As for GCAAGACGUGACCUGAAAGTT against Gpc3, the z-score is inactive: -0.99.

Take GGGAGAAGUGCUGUGGAUUTT against Fras1: the z-score was inactive: 0.401.

As to GGAGAGGAAGAUUUUCUCCTT against Ttll8, the z-score was inactive: 0.52.

In the case of GGAACAAGAAGUUGAAACATT against Capn6, the z-score was inactive: -0.894.

GGAUCUGAAGACAGUGUUUTT against Dap3: the z-score was inactive: -0.245.

As to GAGAACUCUCUAAACAAGUTT against Cks2, the z-score is inactive: 0.714.

In the case of GGACAAUUAAGAUAGCCAUTT against Fhod3, the z-score is inactive: -0.153.

As to GGAGGAGAAAAUCAAACCATT against Ddx19b, the z-score was inactive: -1.18.

Consider CGUAUUUUUACUGGUUGGGTT against Ermard, for which the z-score was inactive: 0.101.

With GGUCAAAGUGAUUGUGUGUTT against Cdh16, the z-score is inactive: 0.555.

As for GCAAAGCUUCUUUUGGGAUTT against Runx2, the z-score is inactive: 0.262.

In the case of CGACGAAGUGGUCGGAAUUTT against Cryzl1, the z-score is active: 2.1.

As for CCCAGAACUAUUCAACACUTT against Sema4g, the z-score was inactive: -1.09.

For the sequence GCAAGUGUGGUUAAUCUGCTT against Thada, the z-score was inactive: -0.462.

On to GCAUUUUGACCCAAGUGUUTT against Foxq1, for which the z-score was inactive: -0.184.

For GGGAACACCCACGAACUCATT against Polrmt, the z-score is inactive: 1.45.

In the case of AUAAGGAUGUCCAUCUUGCTT against Olfr884, the z-score was inactive: -1.17.

Regarding GGACCUAAAGAUAAUAAGUTT against Pex3, the z-score is inactive: -0.481.

In the case of GUGAAGGCCCAUGGCAAGATT against Hbb-b1, the z-score was inactive: -0.235.

On to CCACAGAUUCCAUGAUCCCTT against Gdap1l1, for which the z-score was inactive: -0.555.

GGACUUGGACUGUGAAAACTT against Vgll4: the z-score is inactive: -1.45.

With GGACUUCCAUUCUUUUUCATT against Klf11, the z-score is inactive: -0.29.

Regarding “GCAUUGUCCAGGUAUCUCATT against B230206H07Rik”, the z-score was inactive: -0.409.

For the sequence GGCUGCACAAACAUGGUUCTT against Pard6a, the z-score is inactive: -0.146.

As to GGUGGAACUCGUCAAUAGCTT against Vat1, the z-score is inactive: 0.269.

Regarding GGUGCUAAAGAUCUGAGAUTT against Ly6g2, the z-score was inactive: 0.704.

Turning to GGUUCACUACAACAUUGGCTT against Tmtc4, the z-score is inactive: -0.686.

For CCGCCUUCGGGAAUUCUUUTT against Trim25, the z-score was inactive: -0.269.

As for GCAAUGGUUGGUUCAAUAATT against Lrrc56, the z-score is inactive: -0.458.

On to GGAAAAGAUUGUCUUUGAUTT against Nup133, for which the z-score was inactive: -1.11.

For GGUGCUAUUCAUCUGCACGTT against Lonp1, the z-score was inactive: -1.09.

Regarding CGCCCAAAUUGACUAUUUGTT against Fam214b, the z-score was inactive: 0.351.

As for GGGAAGAAAAUGAAAGGUUTT against Cdk5rap2, the z-score is inactive: -1.14.

As for GGCAGAAGAAGUGGCCAAGTT against Elk3, the z-score was inactive: 1.82.

With GGAGAAUGAGCAAAUCAAATT against Olfml2b, the z-score is inactive: 1.54.

AUACGAUUUUUGUACUGCUTT against Defa4: the z-score was inactive: 0.305.

GGAUAAUGGUUUAAAACUCTT against Bmt2: the z-score is inactive: -1.34.

With CGAGCUUUGAAAGUUUAAUTT against Pcsk2, the z-score is inactive: 0.591.

As for GGUGAAGUGUGAAACAAUGTT against Ube2m, the z-score was inactive: -1.11.

In the case of GGUUUUUAACUGGAAAACUTT against Ppwd1, the z-score was inactive: 1.22.

As for CCUUCAUGCAACAGCUACUTT against Nckap5l, the z-score is active: -2.57.
